Some entries share one result that the patent states for a list of compounds.
Test system: PKC
Test: cell-free PKC binding assay, isoform not given
Parameters: species or system human
Conditions: versus bryostatin 1 (C13 methyl-(Z)-enoate)
Description: Because a prerequisite for PKC pathway involvement is binding to PKC, compounds were initially evaluated for PKC affinity in a cell-free competitive binding assay with tritiated phorbol dibutyrate ([^3H]-PDBu). Assays were performed with representative members of both the conventional (PKCα) and novel (PKCδ) PKC families. Subsequently, compounds were assayed for PKC activation in living cells using an isoform translocation assay.
Assay PKC was prepared by dissolving a 4 μg aliquot of the indicated recombinant human PKC isoform (Invitrogen) into 11.6 mL of PKC binding assay buffer (this amount is sufficient for two assays). The diluted PKC was stored on ice for immediate use.
Triplicate data points were obtained for each analog concentration. […] Maximal ^3H-PDBu binding was assessed in triplicate by substitution of the analog compound with 20 μL DMSO. […] Scintillation vials were filled with Bio-Safe II scintillation fluid (5 mL) and measured for radioactivity using a Beckman LS 6000SC scintillation counter. […] The data were plotted—cpm vs. log(concentration)—using Prism® by GraphPad Software and an IC50 was determined using that program's built-in one-site competition least squares regression function. Ki values were calculated using the equation: Ki=IC50/(1+([3H−PDBu]/Kd)). The Kd of ^3H-PDBu for PKC isoforms was measured separately via saturation binding experiments under identical conditions.

## CCC/C=C/C=C/C(=O)O[C@H]1/C(=C/C(=O)OC)C[C@H]2C[C@H]([C@@H](C)O)OC(=O)C[C@H](O)C[C@@H]3C[C@H](OC(C)=O)C(C)(C)[C@](O)(C[C@@H]4C[C@H](OC(=O)CN(C)C)C[C@H](/C=C/C(C)(C)[C@]1(O)O2)O4)O3 [SUW211]
  decrease in affinity to PKC / potency: 20-100 fold

Reference: US20220193029A1, “BRYOSTATIN COMPOUNDS FOR ENHANCEMENT OF IMMUNOTHERAPY” (priority 2019, published 2022)
